Results are given in words; binding and its absence hold for the method and conditions named. Binding calls can cover weak binding; strength is not graded here.
Molecular target: LexA hybrid containing the TPR domain of Ssn6 (yeast)
Assay: two-hybrid; library screen: LexA hybrid with the TPR domain of Ssn6 as bait against a Gal4p activation domain yeast genomic library

B1: Ssn6 Δ29 (amino acids 30 to 180) (domain or fragment, yeast, UniProt P14922 30-180, looked up)
chain: QAAVPQQPLDPLTQSTAETWLSIASLAETLGDGDRAAMAYDATLQFNPSSAKALTSLAHLYRSRDMFQRAAELYERALLVNPELSDVWATLGHCYLMLDDLQRAYNAYQQALYHLSNPNVPKLWHGIGILYDRYGSLDYAEEAFAKVLELD
notes: Ssn6 (also known as Cyc8), yeast, amino acids 30 to 180; lacks residues 1-29 of the NTpolyQ tail and contains three intact TPRs; also called Ssn6 Δ29-Gal4; LexA-Ssn6 Δ29; source: yeast two-hybrid fusion (clone isolated from a Gal4pAD yeast genomic library, pACTII)
Q: B1 was tested. Which binding did it give?
A: binds

— paper PMC5650148, “Ssn6-Tup1 global transcriptional co-repressor: Role of the N-terminal glutamine-rich region of Ssn6” (PLoS ONE, 2017)
